For 17 compounds, percent growth inhibition results are on record in the supplement of paper PMC6658780.

The assay relates to Acinetobacter baumannii WP-487. Put plainly: percent growth inhibition of drug + antibiotic vs DMSO control; higher = more growth inhibition. As to conditions: antibiotic (0.125x MIC): colistin.

Where a name gives a salt, the structure may show the parent alone. ± gives the standard deviation of the averaged measurements. The list shows a part of the results. Single values are uncertain here, since repeats match poorly.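 Clinical A. baumannii isolates resistant to the partner antibiotic were chosen, and the screen identifies drugs restoring that antibiotic's activity. Subtracting the initial incubation reading corrects for coloured-compound background.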

In the case of `Fc1ccc(C(c2ccc(F)cc2)N2CCN(C/C=C/c3ccccc3)CC2)cc1` [Flunarizine dihydrochloride], the percent growth inhibition by setting is: (7 µM) 37.1 ± 50%; (20 µM) 44.1 ± 62%.
Consider `CCc1oc2ccccc2c1C(=O)c1cc(Br)c(O)c(Br)c1` [Benzbromarone], for which the percent growth inhibition was 51.1 ± 52% (7 µM) and 52.6 ± 54% (20 µM).
For `Clc1ccc(COC(Cn2ccnc2)c2ccc(Cl)cc2Cl)cc1` (centres undefined) [Econazole nitrate] the same measures were 49.8 ± 58% and 52 ± 56%.
For the compound `CCOC(=O)C1=C(C)NC(C)=C(C(=O)OC)C1c1cccc(Cl)c1Cl` (centres undefined) [Felodipine], the percent growth inhibition runs as follows: (7 µM) -0.968 ± 9.2%; (20 µM) 42.4 ± 62%.
Take `CCN(CC)Cc1cc(Nc2ccnc3cc(Cl)ccc23)ccc1O` [Amodiaquin dihydrochloride dihydrate]: the percent growth inhibition runs as follows: (7 µM) 53.4 ± 47%; (20 µM) 62.8 ± 43%.
`CC[C@H]1OC(=O)[C@H](C)[C@@H](O[C@H]2C[C@@](C)(OC)[C@@H](O)[C@H](C)O2)[C@H](C)[C@@H](O[C@@H]2O[C@H](C)C[C@H](N(C)C)[C@H]2O)[C@](C)(O)C[C@@H](C)/C(=N\OCOCCOC)[C@H](C)[C@@H](O)[C@]1(C)O` [Roxithromycin]: the percent growth inhibition reads like this: (7 µM) 42.9 ± 81%; (20 µM) 53.2 ± 66%.
On to `CC(C)(O)c1ccccc1CC[C@@H](SCC1(CC(=O)O)CC1)c1cccc(/C=C/c2ccc3ccc(Cl)cc3n2)c1` [Montelukast], for which the percent growth inhibition was determined as 39.5 ± 78% (7 µM) and 2.14 ± 28% (20 µM).
Regarding `CN(C)CCCN1c2ccccc2CCc2ccc(Cl)cc21` [Clomipramine hydrochloride], the percent growth inhibition runs as follows: (7 µM) 13 ± 16%; (20 µM) 60 ± 56%.
For `CN(C)CC/C=C1/c2ccccc2Sc2ccc(Cl)cc21` [Chlorprothixene hydrochloride] the same measures were 6.42 ± 16% and 52.1 ± 68%.
Take `CCOC(=O)OC(C)OC(=O)[C@@H]1N2C(=O)[C@@H](NC(=O)[C@H](N)c3ccccc3)[C@H]2SC1(C)C` (some centres undefined) [Bacampicillin hydrochloride]: the percent growth inhibition reads like this: (7 µM) -0.292 ± 6.3%; (20 µM) 66.9 ± 28%.
For `O=C1NCCN1c1ncc([N+](=O)[O-])s1` [Niridazole] the same measures were 17.4 ± 29% and 52.4 ± 66%.
Turning to `CSc1ccc2c(c1)N(CCC1CCCCN1C)c1ccccc1S2` (centres undefined) [Thioridazine hydrochloride], the percent growth inhibition is, setting by setting: (7 µM) 65.7 ± 40%; (20 µM) 55 ± 52%.
For the compound `CCN(CC)C(=S)SSC(=S)N(CC)CC` [Disulfiram], the percent growth inhibition reads like this: (7 µM) 30.4 ± 41%; (20 µM) 72.9 ± 38%.
`N#CC(c1ccc(Cl)cc1)c1c(Cl)cc(-n2ncc(=O)[nH]c2=O)cc1Cl` (centres undefined) [Diclazuril]: the percent growth inhibition (7 µM) turned out to be 2.74 ± 7.8% and the percent growth inhibition (20 µM) worked out at 55.1 ± 64%.
On to `C#C[C@]1(O)CC[C@H]2[C@@H]3CCC4=Cc5oncc5C[C@]4(C)[C@H]3CC[C@@]21C` [Danazol], for which the percent growth inhibition reads like this: (7 µM) -0.00251 ± 15%; (20 µM) 47.5 ± 74%.
Consider `Cc1cccc(C)c1NC(=O)C(C)N` (centres undefined) [Tocainide hydrochloride], for which the percent growth inhibition is, setting by setting: (7 µM) -3.91 ± 5%; (20 µM) 45.7 ± 66%.
Turning to `CCC(C)(C)c1ccc(CC(C)CN2C[C@@H](C)O[C@@H](C)C2)cc1` (some centres undefined) [Amorolfine hydrochloride], the percent growth inhibition (7 µM) is -0.56 ± 2.7% and the percent growth inhibition (20 µM) is 51.2 ± 59%.
